In the supplement of paper PMC10032668:
The other results are listed elsewhere or left out. Only hits are listed; about a third recur on repeated control peptides.

Chains of the proteins cited; added tags and fusions are not shown.
APOA1, P02647, UniProt P02647, whole entry: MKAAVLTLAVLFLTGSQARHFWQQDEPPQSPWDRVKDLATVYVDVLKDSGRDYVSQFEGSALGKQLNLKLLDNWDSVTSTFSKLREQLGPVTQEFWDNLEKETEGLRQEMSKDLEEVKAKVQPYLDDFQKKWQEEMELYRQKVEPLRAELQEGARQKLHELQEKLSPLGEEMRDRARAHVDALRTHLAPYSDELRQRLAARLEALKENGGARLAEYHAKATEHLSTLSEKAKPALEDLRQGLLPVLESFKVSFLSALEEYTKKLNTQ
NEDD8, Q15843, UniProt Q15843, whole entry: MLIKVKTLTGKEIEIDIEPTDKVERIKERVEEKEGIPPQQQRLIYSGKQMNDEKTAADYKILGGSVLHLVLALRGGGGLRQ
SS18, Q15532, UniProt Q15532, whole entry: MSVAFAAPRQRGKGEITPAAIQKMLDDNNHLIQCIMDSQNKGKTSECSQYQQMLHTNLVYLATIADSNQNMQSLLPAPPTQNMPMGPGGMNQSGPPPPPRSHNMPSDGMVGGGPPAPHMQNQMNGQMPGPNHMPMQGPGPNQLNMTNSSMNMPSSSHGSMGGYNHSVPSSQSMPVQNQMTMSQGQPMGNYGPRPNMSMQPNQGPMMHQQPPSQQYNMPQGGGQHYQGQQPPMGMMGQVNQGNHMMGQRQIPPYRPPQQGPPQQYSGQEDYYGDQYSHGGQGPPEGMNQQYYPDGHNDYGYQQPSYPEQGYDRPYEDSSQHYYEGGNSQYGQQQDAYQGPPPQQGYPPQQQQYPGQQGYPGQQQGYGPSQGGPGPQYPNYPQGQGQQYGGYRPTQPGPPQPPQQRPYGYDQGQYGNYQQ
EIF3F, O00303, UniProt O00303, whole entry: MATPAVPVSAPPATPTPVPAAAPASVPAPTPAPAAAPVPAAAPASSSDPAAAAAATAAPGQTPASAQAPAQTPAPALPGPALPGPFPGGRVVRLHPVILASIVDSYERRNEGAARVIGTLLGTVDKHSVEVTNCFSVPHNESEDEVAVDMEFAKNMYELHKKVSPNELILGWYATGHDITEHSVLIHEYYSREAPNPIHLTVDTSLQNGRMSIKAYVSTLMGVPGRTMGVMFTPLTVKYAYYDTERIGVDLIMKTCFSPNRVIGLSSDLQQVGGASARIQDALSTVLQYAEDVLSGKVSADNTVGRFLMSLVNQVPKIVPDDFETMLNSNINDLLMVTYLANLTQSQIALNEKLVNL
GNAI2, P04899, UniProt P04899, whole entry: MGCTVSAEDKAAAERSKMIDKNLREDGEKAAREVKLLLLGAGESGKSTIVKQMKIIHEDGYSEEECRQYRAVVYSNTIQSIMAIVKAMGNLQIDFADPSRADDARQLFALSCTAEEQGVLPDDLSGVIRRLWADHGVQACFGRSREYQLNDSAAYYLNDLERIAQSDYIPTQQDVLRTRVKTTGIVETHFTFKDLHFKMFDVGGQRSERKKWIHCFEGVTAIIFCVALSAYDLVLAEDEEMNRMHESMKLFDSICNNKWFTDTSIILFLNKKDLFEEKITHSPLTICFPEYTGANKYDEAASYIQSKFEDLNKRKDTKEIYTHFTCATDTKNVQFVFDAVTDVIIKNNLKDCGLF
PSMC3, P17980, UniProt P17980, whole entry: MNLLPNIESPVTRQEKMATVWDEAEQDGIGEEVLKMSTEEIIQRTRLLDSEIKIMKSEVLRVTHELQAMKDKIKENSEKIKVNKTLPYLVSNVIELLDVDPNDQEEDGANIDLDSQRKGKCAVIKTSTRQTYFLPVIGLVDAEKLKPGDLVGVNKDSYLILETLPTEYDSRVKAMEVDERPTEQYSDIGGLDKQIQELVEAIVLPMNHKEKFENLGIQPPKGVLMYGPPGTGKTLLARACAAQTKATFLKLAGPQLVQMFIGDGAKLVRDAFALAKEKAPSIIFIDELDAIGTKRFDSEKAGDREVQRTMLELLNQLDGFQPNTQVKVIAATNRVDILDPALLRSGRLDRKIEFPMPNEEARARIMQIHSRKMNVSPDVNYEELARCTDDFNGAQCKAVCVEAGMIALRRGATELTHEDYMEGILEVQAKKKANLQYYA
NCAPD2, Q15021, UniProt Q15021, whole entry: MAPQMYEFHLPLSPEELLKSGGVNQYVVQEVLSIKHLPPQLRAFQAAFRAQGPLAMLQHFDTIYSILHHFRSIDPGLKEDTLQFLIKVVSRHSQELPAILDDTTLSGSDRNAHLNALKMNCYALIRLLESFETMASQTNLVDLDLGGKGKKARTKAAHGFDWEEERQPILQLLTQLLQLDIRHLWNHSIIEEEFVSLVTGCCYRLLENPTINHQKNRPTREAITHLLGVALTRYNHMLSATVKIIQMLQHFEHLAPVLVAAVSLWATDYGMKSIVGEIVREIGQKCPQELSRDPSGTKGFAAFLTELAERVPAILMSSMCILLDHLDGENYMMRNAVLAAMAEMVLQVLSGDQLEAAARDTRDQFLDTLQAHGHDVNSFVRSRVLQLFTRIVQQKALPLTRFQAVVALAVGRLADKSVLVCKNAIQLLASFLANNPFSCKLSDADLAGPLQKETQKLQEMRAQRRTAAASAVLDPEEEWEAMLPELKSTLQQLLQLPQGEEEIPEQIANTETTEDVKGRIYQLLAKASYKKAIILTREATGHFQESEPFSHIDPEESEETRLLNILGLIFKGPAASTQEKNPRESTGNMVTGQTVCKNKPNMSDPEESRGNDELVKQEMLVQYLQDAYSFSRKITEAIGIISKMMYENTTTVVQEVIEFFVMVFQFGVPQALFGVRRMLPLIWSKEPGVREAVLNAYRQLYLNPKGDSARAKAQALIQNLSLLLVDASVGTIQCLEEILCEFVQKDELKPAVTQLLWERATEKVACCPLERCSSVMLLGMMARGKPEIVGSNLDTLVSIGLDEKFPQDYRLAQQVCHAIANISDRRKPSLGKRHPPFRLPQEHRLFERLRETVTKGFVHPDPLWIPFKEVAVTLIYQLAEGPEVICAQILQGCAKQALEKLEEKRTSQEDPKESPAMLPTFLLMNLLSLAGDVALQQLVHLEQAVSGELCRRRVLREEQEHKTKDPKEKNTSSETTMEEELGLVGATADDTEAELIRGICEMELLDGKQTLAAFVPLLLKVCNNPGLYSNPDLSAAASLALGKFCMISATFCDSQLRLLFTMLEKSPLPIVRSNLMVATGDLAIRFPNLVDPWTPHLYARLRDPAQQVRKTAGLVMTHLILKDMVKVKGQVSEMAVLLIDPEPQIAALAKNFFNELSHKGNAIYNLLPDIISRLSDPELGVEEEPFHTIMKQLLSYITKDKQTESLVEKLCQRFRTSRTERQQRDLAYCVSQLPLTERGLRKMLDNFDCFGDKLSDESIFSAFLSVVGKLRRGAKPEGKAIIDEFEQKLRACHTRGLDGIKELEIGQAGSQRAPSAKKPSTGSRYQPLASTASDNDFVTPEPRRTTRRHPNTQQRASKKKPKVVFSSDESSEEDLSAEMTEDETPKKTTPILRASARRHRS
PHF3, Q92576, UniProt Q92576, whole entry: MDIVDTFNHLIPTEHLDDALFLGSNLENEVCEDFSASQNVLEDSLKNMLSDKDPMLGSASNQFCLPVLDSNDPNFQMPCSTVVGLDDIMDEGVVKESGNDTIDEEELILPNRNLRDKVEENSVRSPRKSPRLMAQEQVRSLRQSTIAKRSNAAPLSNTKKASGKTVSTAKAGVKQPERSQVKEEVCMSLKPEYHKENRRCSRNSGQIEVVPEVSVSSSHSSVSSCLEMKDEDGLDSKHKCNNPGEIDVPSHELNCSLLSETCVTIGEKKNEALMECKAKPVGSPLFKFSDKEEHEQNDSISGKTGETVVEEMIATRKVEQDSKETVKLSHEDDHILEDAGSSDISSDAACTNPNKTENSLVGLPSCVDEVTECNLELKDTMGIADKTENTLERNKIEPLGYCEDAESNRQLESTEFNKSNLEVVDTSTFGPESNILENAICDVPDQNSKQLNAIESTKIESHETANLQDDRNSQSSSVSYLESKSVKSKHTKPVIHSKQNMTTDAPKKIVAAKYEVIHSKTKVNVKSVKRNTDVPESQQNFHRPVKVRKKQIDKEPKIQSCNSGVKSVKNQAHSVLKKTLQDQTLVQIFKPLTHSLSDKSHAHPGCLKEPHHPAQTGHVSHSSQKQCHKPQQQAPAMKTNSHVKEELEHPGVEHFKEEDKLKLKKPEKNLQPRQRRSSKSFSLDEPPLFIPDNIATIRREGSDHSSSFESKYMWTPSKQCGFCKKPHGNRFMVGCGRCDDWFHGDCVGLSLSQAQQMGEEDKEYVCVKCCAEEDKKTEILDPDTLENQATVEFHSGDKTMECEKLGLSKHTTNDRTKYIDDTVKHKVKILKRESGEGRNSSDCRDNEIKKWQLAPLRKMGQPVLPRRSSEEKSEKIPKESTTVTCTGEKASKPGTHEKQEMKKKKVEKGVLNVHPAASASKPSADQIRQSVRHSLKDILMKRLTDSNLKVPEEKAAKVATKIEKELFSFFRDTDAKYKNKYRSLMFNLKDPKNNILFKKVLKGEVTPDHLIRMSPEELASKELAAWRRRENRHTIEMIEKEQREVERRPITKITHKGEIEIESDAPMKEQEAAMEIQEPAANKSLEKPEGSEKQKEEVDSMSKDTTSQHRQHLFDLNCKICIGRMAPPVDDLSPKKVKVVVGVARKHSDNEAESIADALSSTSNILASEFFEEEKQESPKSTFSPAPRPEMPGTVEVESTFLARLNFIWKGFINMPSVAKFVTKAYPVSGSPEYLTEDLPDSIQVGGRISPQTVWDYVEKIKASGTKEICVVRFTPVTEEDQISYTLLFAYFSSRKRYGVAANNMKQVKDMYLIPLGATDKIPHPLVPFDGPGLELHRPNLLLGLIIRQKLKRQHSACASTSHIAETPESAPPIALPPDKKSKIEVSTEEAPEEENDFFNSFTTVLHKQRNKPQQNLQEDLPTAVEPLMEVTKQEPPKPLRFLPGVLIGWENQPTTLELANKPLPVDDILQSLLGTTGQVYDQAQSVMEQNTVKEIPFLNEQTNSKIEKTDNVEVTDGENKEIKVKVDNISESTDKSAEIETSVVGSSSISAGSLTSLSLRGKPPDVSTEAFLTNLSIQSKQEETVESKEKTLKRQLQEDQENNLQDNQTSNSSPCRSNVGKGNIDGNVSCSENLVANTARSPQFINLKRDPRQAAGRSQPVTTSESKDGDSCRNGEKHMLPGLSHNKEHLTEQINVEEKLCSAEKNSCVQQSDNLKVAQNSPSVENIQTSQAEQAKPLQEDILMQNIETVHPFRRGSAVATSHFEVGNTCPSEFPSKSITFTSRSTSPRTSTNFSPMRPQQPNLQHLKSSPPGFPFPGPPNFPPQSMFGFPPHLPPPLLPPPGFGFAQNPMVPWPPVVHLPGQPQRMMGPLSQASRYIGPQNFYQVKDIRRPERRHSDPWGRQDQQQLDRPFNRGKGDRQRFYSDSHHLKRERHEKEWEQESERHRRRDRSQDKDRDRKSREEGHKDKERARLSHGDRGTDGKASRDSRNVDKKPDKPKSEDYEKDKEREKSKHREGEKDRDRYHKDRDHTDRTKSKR
PIK3C3, Q8NEB9, UniProt Q8NEB9, whole entry: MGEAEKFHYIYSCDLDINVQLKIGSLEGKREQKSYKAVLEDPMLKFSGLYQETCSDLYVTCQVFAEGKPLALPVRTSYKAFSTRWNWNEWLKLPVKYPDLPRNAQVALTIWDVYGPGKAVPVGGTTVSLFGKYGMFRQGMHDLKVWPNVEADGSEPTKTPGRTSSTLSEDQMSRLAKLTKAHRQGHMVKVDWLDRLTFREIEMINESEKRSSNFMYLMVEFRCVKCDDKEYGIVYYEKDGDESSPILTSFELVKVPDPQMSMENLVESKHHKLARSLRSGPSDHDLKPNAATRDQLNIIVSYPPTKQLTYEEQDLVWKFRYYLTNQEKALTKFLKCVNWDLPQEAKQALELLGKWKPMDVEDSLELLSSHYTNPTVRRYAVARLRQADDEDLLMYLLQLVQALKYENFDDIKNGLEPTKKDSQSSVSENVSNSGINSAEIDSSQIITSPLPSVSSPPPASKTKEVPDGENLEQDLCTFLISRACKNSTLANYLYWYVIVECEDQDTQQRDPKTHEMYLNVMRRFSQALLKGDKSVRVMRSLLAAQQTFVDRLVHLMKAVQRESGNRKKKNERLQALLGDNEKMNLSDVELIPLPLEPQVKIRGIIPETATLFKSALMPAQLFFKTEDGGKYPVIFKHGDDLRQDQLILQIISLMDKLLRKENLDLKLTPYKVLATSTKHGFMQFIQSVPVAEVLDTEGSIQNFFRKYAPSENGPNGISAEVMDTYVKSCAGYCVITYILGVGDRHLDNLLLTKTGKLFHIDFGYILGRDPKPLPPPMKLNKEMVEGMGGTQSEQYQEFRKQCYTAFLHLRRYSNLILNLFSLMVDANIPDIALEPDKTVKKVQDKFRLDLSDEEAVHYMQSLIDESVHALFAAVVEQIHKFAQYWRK

How the values were obtained:
Test in all cases: PRISMA enrichment of interactor (LFQ) in peptide spot vs all other peptide spots (log2 fold change); higher = stronger / more specific binding of the interactor to the peptide
APOA1, P02647 = target: APOA1, P02647
Protocol: (§1)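 PRISMA: 15-aa overlapping tiles (offset 8 aa) of 60 microproteins, plus SOS1/GLUT1 control peptides, were spot-synthesized on cellulose membranes in triplicate. Membranes were incubated with benzonase-treated HEK293T lysate, and bound proteins were identified by LC-MS/MS with LFQ. Enrichment is the log2 fold change of each protein in one spot versus all other spots. Only interactors passing the significance cutoff are listed.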

C1orf131, Q8NDD1 = target: C1orf131, Q8NDD1
Protocol: as §1

CC2D1A, Q6P1N0 = target: CC2D1A, Q6P1N0
Protocol: as §1

CTR9, Q6PD62 = target: CTR9, Q6PD62
Protocol: as §1

DSG2, Q14126 = target: DSG2, Q14126
Protocol: as §1

FAM98A, Q8NCA5 = target: FAM98A, Q8NCA5
Protocol: as §1

IGF2BP2, Q9Y6M1 = target: IGF2BP2, Q9Y6M1
Protocol: as §1

ITIH2, P19823 = target: ITIH2, P19823
Protocol: as §1

NEDD8, Q15843 = target: NEDD8, Q15843
Protocol: as §1

NMT1, P30419 = target: NMT1, P30419
Protocol: as §1

[1] = substrate: NOSIP, Q9Y314
Protocol: as §1

RCE1, Q9Y256 = target: RCE1, Q9Y256
Protocol: as §1

SGPP1, Q9BX95 = target: SGPP1, Q9BX95
Protocol: as §1

SLC25A1, P53007 = target: SLC25A1, P53007
Protocol: as §1

SS18, Q15532 = target: SS18, Q15532
Protocol: as §1

TEX264, Q9Y6I9 = target: TEX264, Q9Y6I9
Protocol: as §1

TWNK, Q96RR1 = target: TWNK, Q96RR1
Protocol: as §1

UFD1, Q92890 = target: UFD1, Q92890
Protocol: as §1

WTAP, Q15007 = target: WTAP, Q15007
Protocol: as §1

YTHDC2, Q9H6S0 = target: YTHDC2, Q9H6S0
Protocol: as §1

ZNF703, Q9H7S9 = target: ZNF703, Q9H7S9
Protocol: as §1

C3, P01024 = target: C3, P01024
Protocol: as §1

DCUN1D5, Q9BTE7 = target: DCUN1D5, Q9BTE7
Protocol: as §1

EIF3F, O00303 = target: EIF3F, O00303
Protocol: as §1

GNAI2, P04899 = target: GNAI2, P04899
Protocol: as §1

HNRNPR, O43390 = target: HNRNPR, O43390
Protocol: as §1

MAPRE1, Q15691 = target: MAPRE1, Q15691
Protocol: as §1

MRPS25, P82663 = target: MRPS25, P82663
Protocol: as §1

PSMC3, P17980 = target: PSMC3, P17980
Protocol: as §1

PSMD7, P51665 = target: PSMD7, P51665
Protocol: as §1

PTDSS1, P48651 = target: PTDSS1, P48651
Protocol: as §1

RBM4, Q9BWF3 = target: RBM4, Q9BWF3
Protocol: as §1

YTHDC1, Q96MU7 = target: YTHDC1, Q96MU7
Protocol: as §1

APOA4, P06727 = target: APOA4, P06727
Protocol: as §1

CD2AP, Q9Y5K6 = target: CD2AP, Q9Y5K6
Protocol: as §1

DNAJB12, Q9NXW2 = target: DNAJB12, Q9NXW2
Protocol: as §1

DPM3, Q9P2X0 = target: DPM3, Q9P2X0
Protocol: as §1

FAM168A, Q92567 = target: FAM168A, Q92567
Protocol: as §1

HNRNPUL1, Q9BUJ2 = target: HNRNPUL1, Q9BUJ2
Protocol: as §1

MRPL34, Q9BQ48 = target: MRPL34, Q9BQ48
Protocol: as §1

MRPS5, P82675 = target: MRPS5, P82675
Protocol: as §1

NCAPD2, Q15021 = target: NCAPD2, Q15021
Protocol: as §1

NSUN5, Q96P11 = target: NSUN5, Q96P11
Protocol: as §1

NUP155, O75694 = target: NUP155, O75694
Protocol: as §1

PHF3, Q92576 = target: PHF3, Q92576
Protocol: as §1

PIK3C3, Q8NEB9 = target: PIK3C3, Q8NEB9
Protocol: as §1

PYCR3, Q53H96 = target: PYCR3, Q53H96
Protocol: as §1

RBL2, Q08999 = target: RBL2, Q08999
Protocol: as §1

RBM33, Q96EV2 = target: RBM33, Q96EV2
Protocol: as §1

RMDN3, Q96TC7 = target: RMDN3, Q96TC7
Protocol: as §1

SCO2, O43819 = target: SCO2, O43819
Protocol: as §1

SCYL1, Q96KG9 = target: SCYL1, Q96KG9
Protocol: as §1

TRA2B, P62995 = target: TRA2B, P62995
Protocol: as §1

TRIM32, Q13049 = target: TRIM32, Q13049
Protocol: as §1

TUBGCP3, Q96CW5 = target: TUBGCP3, Q96CW5
Protocol: as §1

ZNF622, Q969S3 = target: ZNF622, Q969S3
Protocol: as §1

B1: RP11-432J24.5_2 (peptide)
chain: AEPASQWVPVRNSST
PRISMA enrichment of interactor (log2) (APOA1, P02647): 4.61
PRISMA enrichment of interactor (log2) (C1orf131, Q8NDD1): 4.95
PRISMA enrichment of interactor (log2) (CC2D1A, Q6P1N0): 5.32
PRISMA enrichment of interactor (log2) (CTR9, Q6PD62): 5.28
PRISMA enrichment of interactor (log2) (DSG2, Q14126): 4.26
PRISMA enrichment of interactor (log2) (FAM98A, Q8NCA5): 5.44
PRISMA enrichment of interactor (log2) (IGF2BP2, Q9Y6M1): 7.41
PRISMA enrichment of interactor (log2) (ITIH2, P19823): 4.06
PRISMA enrichment of interactor (log2) (NEDD8, Q15843): 4.42
PRISMA enrichment of interactor (log2) (NMT1, P30419): 6.12
PRISMA enrichment of interactor (log2) [1]: 4.89
PRISMA enrichment of interactor (log2) (RCE1, Q9Y256): 3.96
PRISMA enrichment of interactor (log2) (SGPP1, Q9BX95): 4.64
PRISMA enrichment of interactor (log2) (SLC25A1, P53007): 4.41
PRISMA enrichment of interactor (log2) (SS18, Q15532): 4.72
PRISMA enrichment of interactor (log2) (TEX264, Q9Y6I9): 4.99
PRISMA enrichment of interactor (log2) (TWNK, Q96RR1): 5.7
PRISMA enrichment of interactor (log2) (UFD1, Q92890): 6.36
PRISMA enrichment of interactor (log2) (WTAP, Q15007): 4.44
PRISMA enrichment of interactor (log2) (YTHDC2, Q9H6S0): 8.17
PRISMA enrichment of interactor (log2) (ZNF703, Q9H7S9): 4.2

B2: ZEB2 (peptide)
chain: QLSLPTKIGGACFRV
PRISMA enrichment of interactor (log2) (APOA1, P02647): 4.33
PRISMA enrichment of interactor (log2) (C3, P01024): 4.58
PRISMA enrichment of interactor (log2) (DCUN1D5, Q9BTE7): 4.56
PRISMA enrichment of interactor (log2) (EIF3F, O00303): 4.98
PRISMA enrichment of interactor (log2) (GNAI2, P04899): 4.8
PRISMA enrichment of interactor (log2) (HNRNPR, O43390): 5.82
PRISMA enrichment of interactor (log2) (MAPRE1, Q15691): 4.46
PRISMA enrichment of interactor (log2) (MRPS25, P82663): 5.53
PRISMA enrichment of interactor (log2) (PSMC3, P17980): 5.14
PRISMA enrichment of interactor (log2) (PSMD7, P51665): 6.57
PRISMA enrichment of interactor (log2) (PTDSS1, P48651): 4.97
PRISMA enrichment of interactor (log2) (RBM4, Q9BWF3): 5.06
PRISMA enrichment of interactor (log2) (YTHDC1, Q96MU7): 5.81

B3: IFRD1 (peptide)
chain: LFTGISAAATAHSYP
PRISMA enrichment of interactor (log2) (APOA4, P06727): 4.38
PRISMA enrichment of interactor (log2) (CD2AP, Q9Y5K6): 5.3
PRISMA enrichment of interactor (log2) (DNAJB12, Q9NXW2): 4.5
PRISMA enrichment of interactor (log2) (DPM3, Q9P2X0): 3.92
PRISMA enrichment of interactor (log2) (FAM168A, Q92567): 4.53
PRISMA enrichment of interactor (log2) (HNRNPUL1, Q9BUJ2): 6.1
PRISMA enrichment of interactor (log2) (MRPL34, Q9BQ48): 4.43
PRISMA enrichment of interactor (log2) (MRPS5, P82675): 6.59
PRISMA enrichment of interactor (log2) (NCAPD2, Q15021): 5.05
PRISMA enrichment of interactor (log2) (NSUN5, Q96P11): 4.74
PRISMA enrichment of interactor (log2) (NUP155, O75694): 4.62
PRISMA enrichment of interactor (log2) (PHF3, Q92576): 6.6
PRISMA enrichment of interactor (log2) (PIK3C3, Q8NEB9): 4.1
PRISMA enrichment of interactor (log2) (PYCR3, Q53H96): 4.99
PRISMA enrichment of interactor (log2) (RBL2, Q08999): 7.78
PRISMA enrichment of interactor (log2) (RBM33, Q96EV2): 4.57
PRISMA enrichment of interactor (log2) (RMDN3, Q96TC7): 5.92
PRISMA enrichment of interactor (log2) (SCO2, O43819): 5.67
PRISMA enrichment of interactor (log2) (SCYL1, Q96KG9): 4.63
PRISMA enrichment of interactor (log2) (TRA2B, P62995): 5.76
PRISMA enrichment of interactor (log2) (TRIM32, Q13049): 4.76
PRISMA enrichment of interactor (log2) (TUBGCP3, Q96CW5): 5.92
PRISMA enrichment of interactor (log2) (ZNF622, Q969S3): 4.91
